Test results reported in paper PMC5499739, “An RRM–ZnF RNA recognition module targets RBM10 to exonic sequences to promote exon exclusion”.
For part of these data: For at least one entry, the source does not settle the construct or the ends of the probe. For part of these data: A weaker result is weaker than the reference pair of the same experiment. Tags and fusion partners may be left off the protein sequences shown. For part of these data: The direction of at least one scale is not stated here.

Experiments:
[1] = target: T1, RBM10 RRM1-ZnF (Homo sapiens) (UniProt P98175); test: ITC; conditions: 10 uM ZnCl2, range given for both G-to-A mutants; 10 mM sodium phosphate pH 6.9, 50 mM NaCl, 1 mM TCEP (+10 uM ZnCl2 for ZnF constructs); ITC 25 C; recombinant protein; protein details: His6 or His6-SUMO3, cleaved with HRV 3C
T1 sequence (looked up, limits assumed): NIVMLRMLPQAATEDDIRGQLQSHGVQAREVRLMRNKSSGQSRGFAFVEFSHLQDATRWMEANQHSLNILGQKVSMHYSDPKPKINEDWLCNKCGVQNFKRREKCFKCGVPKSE

[2] = target: T2, RBM10 RRM1-ZnF (Homo sapiens) (UniProt P98175); test: pull-down; conditions: 20 nM protein; 20 mM Hepes pH 7.8, 80 mM KCl, 20 mM NaCl, 10% glycerol, 2 mM DTT; 4 C; purified recombinant protein; residues 122-248; protein details: GST, kept; only the motif is given
T2 sequence (looked up): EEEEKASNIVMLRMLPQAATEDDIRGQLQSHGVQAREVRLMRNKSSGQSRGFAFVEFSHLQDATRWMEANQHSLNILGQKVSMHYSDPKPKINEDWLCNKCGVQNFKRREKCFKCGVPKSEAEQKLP

Sequence	binding result [1]	binding signal (RNAcompete z-score) [2]
CUGUAGA	binds more weakly	
UUGUGAA [7-mer UUGUGAA]		-0.002
CUGUGAA	binds more weakly	
